These are yes or no findings as the source states them, for the method shown. Binding seen in cells or lysates may run through a third protein. Some entries that bind do so weakly or less than the wild type. For part of these data: Tags and fused reporters may be left off the sequences shown.
T1: His-tagged SEPT7 recombinant protein (UniProt Q16181)
T1 sequence: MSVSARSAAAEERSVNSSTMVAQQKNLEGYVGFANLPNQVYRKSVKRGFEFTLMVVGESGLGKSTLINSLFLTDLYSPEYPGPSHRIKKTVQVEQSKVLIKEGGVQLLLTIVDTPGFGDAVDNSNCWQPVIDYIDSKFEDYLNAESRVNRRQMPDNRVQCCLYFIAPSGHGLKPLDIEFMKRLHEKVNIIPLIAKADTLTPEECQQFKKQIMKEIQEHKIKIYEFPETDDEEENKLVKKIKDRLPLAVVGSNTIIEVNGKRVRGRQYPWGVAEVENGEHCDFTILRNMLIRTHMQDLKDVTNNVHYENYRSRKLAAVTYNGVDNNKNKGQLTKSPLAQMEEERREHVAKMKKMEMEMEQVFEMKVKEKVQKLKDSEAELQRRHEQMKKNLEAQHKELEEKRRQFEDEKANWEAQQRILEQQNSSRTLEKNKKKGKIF

T2: SEPT2 (endogenous, mouse testis) (mouse (endogenous in testis)), P42208
T2 chain: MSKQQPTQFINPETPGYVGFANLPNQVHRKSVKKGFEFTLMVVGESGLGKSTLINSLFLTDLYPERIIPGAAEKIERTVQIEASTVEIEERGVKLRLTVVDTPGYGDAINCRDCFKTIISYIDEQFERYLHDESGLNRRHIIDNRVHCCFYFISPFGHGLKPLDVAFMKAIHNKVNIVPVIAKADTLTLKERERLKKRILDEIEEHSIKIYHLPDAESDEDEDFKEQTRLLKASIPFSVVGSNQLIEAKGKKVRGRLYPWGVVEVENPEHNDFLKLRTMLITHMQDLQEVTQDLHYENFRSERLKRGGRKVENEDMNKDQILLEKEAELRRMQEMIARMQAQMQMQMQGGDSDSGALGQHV

T3: GFP-SEPT12WT (human) (UniProt Q8IYM1)
T3 sequence: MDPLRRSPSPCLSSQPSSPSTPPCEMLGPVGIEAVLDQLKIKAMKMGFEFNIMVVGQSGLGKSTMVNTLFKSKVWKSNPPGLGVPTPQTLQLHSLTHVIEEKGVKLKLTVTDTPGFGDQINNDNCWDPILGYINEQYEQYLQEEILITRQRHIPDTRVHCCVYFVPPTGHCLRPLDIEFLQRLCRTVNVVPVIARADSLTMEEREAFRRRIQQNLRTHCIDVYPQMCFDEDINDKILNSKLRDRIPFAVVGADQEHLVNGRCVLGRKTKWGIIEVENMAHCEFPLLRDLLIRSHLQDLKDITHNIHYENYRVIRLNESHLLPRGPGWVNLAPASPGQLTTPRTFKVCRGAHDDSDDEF

T4: GFP-SEPT12S198A (human) (UniProt Q8IYM1)
T4 sequence: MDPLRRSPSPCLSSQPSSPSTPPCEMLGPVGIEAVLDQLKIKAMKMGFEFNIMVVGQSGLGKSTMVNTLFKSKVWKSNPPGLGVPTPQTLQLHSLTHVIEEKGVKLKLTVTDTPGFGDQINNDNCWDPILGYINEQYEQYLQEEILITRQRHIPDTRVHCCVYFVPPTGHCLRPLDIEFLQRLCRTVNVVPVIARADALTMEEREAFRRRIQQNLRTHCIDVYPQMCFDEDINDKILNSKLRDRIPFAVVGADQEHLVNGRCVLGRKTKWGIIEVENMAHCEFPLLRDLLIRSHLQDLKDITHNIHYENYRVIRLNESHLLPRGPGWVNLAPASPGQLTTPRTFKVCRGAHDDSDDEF

T5: SEPT2 (endogenous, mouse testis) (mouse (endogenous in testis)) (UniProt P42208)
T5 sequence: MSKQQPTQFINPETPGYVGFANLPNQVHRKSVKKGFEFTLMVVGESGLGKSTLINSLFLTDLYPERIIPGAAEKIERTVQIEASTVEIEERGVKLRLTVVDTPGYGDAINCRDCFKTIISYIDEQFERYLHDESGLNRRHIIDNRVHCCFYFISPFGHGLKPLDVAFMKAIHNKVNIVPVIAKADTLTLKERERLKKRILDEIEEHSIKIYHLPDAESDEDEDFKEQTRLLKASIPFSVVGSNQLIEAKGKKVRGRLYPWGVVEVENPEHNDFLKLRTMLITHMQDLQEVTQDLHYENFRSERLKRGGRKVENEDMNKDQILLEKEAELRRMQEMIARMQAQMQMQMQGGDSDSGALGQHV


Columns and labels:
[1] = target: T1, His-tagged SEPT7 recombinant protein; test: pull-down; 5 μg His-SEPT7 on 30 μl Ni-NTA beads, 5 mM imidazole, incubated with testicular lysate of WT or SEPT12^S196E/S196E mice overnight at 4°C; washed three times; blots for SEPT12, SEPT2, SEPT6 and His; only the target purified
[2] = target: T2, SEPT2 (endogenous, mouse testis) (mouse …); test: co-IP; testicular lysates of WT and SEPT12 KI mice immunoprecipitated with anti-SEPT2; blots with anti-SEPT2, anti-SEPT6, anti-SEPT7; conditions: remark: other sources report otherwise
GFP-SEPT12WT (human) [3] = target: T3, GFP-SEPT12WT (human); test: co-IP; NT2/D1 cells co-transfected with Myc-SEPT6, FLAG-SEPT7 and a GFP-SEPT12 plasmid; lysates immunoprecipitated with anti-GFP on Dynabeads protein G, 4°C overnight; washed with 100 mM Tris, 150 mM NaCl, 2 mM EDTA, 0.5% Tween-20, 0.01% NP-40; blots with anti-SEPT2, anti-Myc, anti-FLAG, anti-GFP
GFP-SEPT12S198A (human) = target: T4, GFP-SEPT12S198A (human); test: as above
GFP-SEPT12WT (human) [4] = target: T3, GFP-SEPT12WT (human); test: co-IP; NT2/D1 cells co-transfected with HA-SEPT4, Myc-SEPT6, FLAG-SEPT7 and a GFP-SEPT12 plasmid; lysates immunoprecipitated with anti-GFP; blots with anti-HA, anti-Myc, anti-FLAG, anti-GFP
[5] = target: T5, SEPT2 (endogenous, mouse testis) (mouse (endogenous in testis)); test: co-IP; testicular lysates of WT and SEPT12 KI mice immunoprecipitated with anti-SEPT2; blots with anti-SEPT2, anti-SEPT6, anti-SEPT7

Binder | binding (GFP-SEPT12WT (human) [3]) | binding (GFP-SEPT12S198A (human)) | further results
SEPT6 (endogenous, mouse testis) (protein, UniProt Q9R1T4 1-434) MAAADIARQVGEDCRTVPLAGHVGFDSLPDQLVNKSVSQGFCFNILCVGETGLGKSTLMDTLFNTKFEGEPATHTQPGVQLQSNTYDLQESNVGLKLTIVSTVGFGDQINKEDSYKPIVEFIDAQFEAYLQEELKIRRVLHSYHDSRIHVCLYFIAPTGHSLKSLDLVTMKKLDSKVNIIPVIAKSDAISKSELAKFKIKITSELVSNGVQIYQFPTDDESVSEINGTMNAHLPFAVVGSTEEVKIGNKMMRARQYPWGTVQVENEAHCDFVKLREMLIRVNMEDLREQTHARHYELYRRCKLEEMGFKDTDPDSKPFSLQETYEAKRNEFLGELQKKEEEMRQMFVQRVKEKEAELKEAEKELHEKFDRLKKLHQEEKKKLEDKKKCLDEEMNAFKQRKAAAELLQSQGSQAGGSQTLKRDKEKKNNPWLCIE | – | – | binding [1]: binds
SEPT6 (endogenous, mouse testis), Q9R1T4 1-434 (protein) MAAADIARQVGEDCRTVPLAGHVGFDSLPDQLVNKSVSQGFCFNILCVGETGLGKSTLMDTLFNTKFEGEPATHTQPGVQLQSNTYDLQESNVGLKLTIVSTVGFGDQINKEDSYKPIVEFIDAQFEAYLQEELKIRRVLHSYHDSRIHVCLYFIAPTGHSLKSLDLVTMKKLDSKVNIIPVIAKSDAISKSELAKFKIKITSELVSNGVQIYQFPTDDESVSEINGTMNAHLPFAVVGSTEEVKIGNKMMRARQYPWGTVQVENEAHCDFVKLREMLIRVNMEDLREQTHARHYELYRRCKLEEMGFKDTDPDSKPFSLQETYEAKRNEFLGELQKKEEEMRQMFVQRVKEKEAELKEAEKELHEKFDRLKKLHQEEKKKLEDKKKCLDEEMNAFKQRKAAAELLQSQGSQAGGSQTLKRDKEKKNNPWLCIE | – | – | binding [2]: binds
SEPT7 (endogenous, mouse testis) (protein, UniProt O55131 1-436) MSVSARSAAAEERSVNCGTMAQPKNLEGYVGFANLPNQVYRKSVKRGFEFTLMVVGESGLGKSTLINSLFLTDLYSPEYPGPSHRIKKTVQVEQSKVLIKEGGVQLLLTIVDTPGFGDAVDNSNCWQPVIDYIDSKFEDYLNAESRVNRRQMPDNRVQCCLYFIAPSGHGLKPLDIEFMKRLHEKVNIIPLIAKADTLTPEECQQFKKQIMKEIQEHKIKIYEFPETDDEEENKLVKKIKDRLPLAVVGSNTIIEVNGKRVRGRQYPWGVAEVENGEHCDFTILRNMLIRTHMQDLKDVTNNVHYENYRSRKLAAVTYNGVDNNKNKGQLTKSPLAQMEEERREHVAKMKKMEMEMEQVFEMKVKEKVQKLKDSEAELQRRHEQMKKNLEAQHKELEEKRRQFEEEKANWEAQQRILEQQNSSRTLEKNKKKGKIF | – | – | binding [5]: binds
SEPT2 (endogenous, mouse testis) (protein, UniProt P42208 1-361) MSKQQPTQFINPETPGYVGFANLPNQVHRKSVKKGFEFTLMVVGESGLGKSTLINSLFLTDLYPERIIPGAAEKIERTVQIEASTVEIEERGVKLRLTVVDTPGYGDAINCRDCFKTIISYIDEQFERYLHDESGLNRRHIIDNRVHCCFYFISPFGHGLKPLDVAFMKAIHNKVNIVPVIAKADTLTLKERERLKKRILDEIEEHSIKIYHLPDAESDEDEDFKEQTRLLKASIPFSVVGSNQLIEAKGKKVRGRLYPWGVVEVENPEHNDFLKLRTMLITHMQDLQEVTQDLHYENFRSERLKRGGRKVENEDMNKDQILLEKEAELRRMQEMIARMQAQMQMQMQGGDSDSGALGQHV | – | – | binding [1]: binds

Further lines, with some results ahead:

binding (GFP-SEPT12WT (human) [3]) | binding (GFP-SEPT12S198A (human)) | Binder | further results
binds | binds | FLAG-SEPT7 (protein, UniProt Q16181 1-437) MSVSARSAAAEERSVNSSTMVAQQKNLEGYVGFANLPNQVYRKSVKRGFEFTLMVVGESGLGKSTLINSLFLTDLYSPEYPGPSHRIKKTVQVEQSKVLIKEGGVQLLLTIVDTPGFGDAVDNSNCWQPVIDYIDSKFEDYLNAESRVNRRQMPDNRVQCCLYFIAPSGHGLKPLDIEFMKRLHEKVNIIPLIAKADTLTPEECQQFKKQIMKEIQEHKIKIYEFPETDDEEENKLVKKIKDRLPLAVVGSNTIIEVNGKRVRGRQYPWGVAEVENGEHCDFTILRNMLIRTHMQDLKDVTNNVHYENYRSRKLAAVTYNGVDNNKNKGQLTKSPLAQMEEERREHVAKMKKMEMEMEQVFEMKVKEKVQKLKDSEAELQRRHEQMKKNLEAQHKELEEKRRQFEDEKANWEAQQRILEQQNSSRTLEKNKKKGKIF | binding (GFP-SEPT12WT (human) [4]): binds
binds | binds | SEPT2 (endogenous, NT2/D1 cells) (protein, UniProt Q15019-1 1-361) MSKQQPTQFINPETPGYVGFANLPNQVHRKSVKKGFEFTLMVVGESGLGKSTLINSLFLTDLYPERVIPGAAEKIERTVQIEASTVEIEERGVKLRLTVVDTPGYGDAINCRDCFKTIISYIDEQFERYLHDESGLNRRHIIDNRVHCCFYFISPFGHGLKPLDVAFMKAIHNKVNIVPVIAKADTLTLKERERLKKRILDEIEEHNIKIYHLPDAESDEDEDFKEQTRLLKASIPFSVVGSNQLIEAKGKKVRGRLYPWGVVEVENPEHNDFLKLRTMLITHMQDLQEVTQDLHYENFRSERLKRGGRKVENEDMNKDQILLEKEAELRRMQEMIARMQAQMQMQMQGGDGDGGALGHHV | –
binds | binds | Myc-SEPT6 (protein, UniProt Q14141 1-434) MAATDIARQVGEGCRTVPLAGHVGFDSLPDQLVNKSVSQGFCFNILCVGETGLGKSTLMDTLFNTKFEGEPATHTQPGVQLQSNTYDLQESNVRLKLTIVSTVGFGDQINKEDSYKPIVEFIDAQFEAYLQEELKIRRVLHTYHDSRIHVCLYFIAPTGHSLKSLDLVTMKKLDSKVNIIPIIAKADAISKSELTKFKIKITSELVSNGVQIYQFPTDDESVAEINGTMNAHLPFAVIGSTEELKIGNKMMRARQYPWGTVQVENEAHCDFVKLREMLIRVNMEDLREQTHTRHYELYRRCKLEEMGFKDTDPDSKPFSLQETYEAKRNEFLGELQKKEEEMRQMFVQRVKEKEAELKEAEKELHEKFDRLKKLHQDEKKKLEDKKKSLDDEVNAFKQRKTAAELLQSQGSQAGGSQTLKRDKEKKNNPWLCTE | binding (GFP-SEPT12WT (human) [4]): binds

Source: article PMC5386304
